Reference: paper PMC4129401
Numbering of substitutions follows the chain as printed. These are yes or no findings as the source states them, for the method shown. Binding seen in cells or lysates may run through a third protein. Tags and fused reporters may be left off the sequences shown.

Columns and labels:
Assay in all cases: co-IP; HEK293T cells, cosynthesis for 48 hr; lysis in 50 mM Tris-HCl pH 7.5, 150 mM NaCl, 0.5% Triton X-100; anti-FLAG M2 agarose, 5 hr at 4°C; immunoblot with anti-HA or anti-FLAG
[1] = biological target: T1, 3×HA-POC1B-p.Gln67del (human) (UniProt Q8TC44)
T1 sequence: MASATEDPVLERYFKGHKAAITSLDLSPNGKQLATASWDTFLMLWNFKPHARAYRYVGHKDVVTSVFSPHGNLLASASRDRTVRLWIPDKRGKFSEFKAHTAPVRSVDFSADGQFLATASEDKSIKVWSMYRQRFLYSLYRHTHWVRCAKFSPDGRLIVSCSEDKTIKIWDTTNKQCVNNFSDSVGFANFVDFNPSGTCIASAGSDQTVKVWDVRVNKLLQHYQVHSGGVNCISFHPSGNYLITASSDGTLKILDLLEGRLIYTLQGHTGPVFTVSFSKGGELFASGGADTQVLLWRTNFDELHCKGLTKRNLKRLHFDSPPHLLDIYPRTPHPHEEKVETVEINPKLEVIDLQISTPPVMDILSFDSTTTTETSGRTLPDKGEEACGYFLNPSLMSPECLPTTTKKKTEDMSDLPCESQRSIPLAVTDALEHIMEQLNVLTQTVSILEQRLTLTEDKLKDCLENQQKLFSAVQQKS

[2] = biological target: T2, 3×FLAG-FAM161A (full-length) (human) (UniProt Q3B820)
T2 sequence: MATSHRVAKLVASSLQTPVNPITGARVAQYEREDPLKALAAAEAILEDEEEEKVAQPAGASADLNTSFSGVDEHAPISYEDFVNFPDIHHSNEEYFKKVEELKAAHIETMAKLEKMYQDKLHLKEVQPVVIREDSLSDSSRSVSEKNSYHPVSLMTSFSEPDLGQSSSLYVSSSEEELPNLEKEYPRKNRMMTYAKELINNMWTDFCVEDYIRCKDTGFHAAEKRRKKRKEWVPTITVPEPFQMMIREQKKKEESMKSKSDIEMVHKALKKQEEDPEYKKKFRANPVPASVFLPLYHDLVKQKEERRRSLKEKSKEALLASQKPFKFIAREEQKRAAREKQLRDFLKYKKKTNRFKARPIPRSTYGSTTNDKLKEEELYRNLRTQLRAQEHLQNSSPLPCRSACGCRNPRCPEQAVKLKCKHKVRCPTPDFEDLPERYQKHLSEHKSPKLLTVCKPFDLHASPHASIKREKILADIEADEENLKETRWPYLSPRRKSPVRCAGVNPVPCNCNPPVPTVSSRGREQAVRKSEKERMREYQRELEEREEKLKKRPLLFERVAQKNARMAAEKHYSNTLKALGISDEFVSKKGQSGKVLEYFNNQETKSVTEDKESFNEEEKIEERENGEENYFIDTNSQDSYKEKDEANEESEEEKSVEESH

[3] = biological target: T3, 3×HA-POC1B wild-type (full-length, 478 amino acids) (human) (UniProt Q8TC44)
T3 sequence: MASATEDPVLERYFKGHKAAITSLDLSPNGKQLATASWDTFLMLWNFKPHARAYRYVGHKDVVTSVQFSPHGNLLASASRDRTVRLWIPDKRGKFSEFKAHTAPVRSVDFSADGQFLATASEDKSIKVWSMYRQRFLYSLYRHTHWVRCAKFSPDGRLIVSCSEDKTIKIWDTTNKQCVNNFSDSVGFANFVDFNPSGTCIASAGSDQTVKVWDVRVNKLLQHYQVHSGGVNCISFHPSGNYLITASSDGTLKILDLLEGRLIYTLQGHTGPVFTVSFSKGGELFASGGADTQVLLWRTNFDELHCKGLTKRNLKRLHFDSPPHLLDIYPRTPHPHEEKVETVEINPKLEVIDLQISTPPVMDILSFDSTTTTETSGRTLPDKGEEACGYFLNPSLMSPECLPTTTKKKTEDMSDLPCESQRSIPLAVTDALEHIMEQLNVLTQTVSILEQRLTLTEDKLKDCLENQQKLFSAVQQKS

[4] = biological target: T4, 3×HA-POC1B-p.Arg106Pro (human) (UniProt Q8TC44)
T4 sequence: T3 sequence with R106P

Measured: binding

B1: p63 (protein, UniProt Q9H3D4 1-680)
chain: MNFETSRCATLQYCPDPYIQRFVETPAHFSWKESYYRSTMSQSTQTNEFLSPEVFQHIWDFLEQPICSVQPIDLNFVDEPSEDGATNKIEISMDCIRMQDSDLSDPMWPQYTNLGLLNSMDQQIQNGSSSTSPYNTDHAQNSVTAPSPYAQPSSTFDALSPSPAIPSNTDYPGPHSFDVSFQQSSTAKSATWTYSTELKKLYCQIAKTCPIQIKVMTPPPQGAVIRAMPVYKKAEHVTEVVKRCPNHELSREFNEGQIAPPSHLIRVEGNSHAQYVEDPITGRQSVLVPYEPPQVGTEFTTVLYNFMCNSSCVGGMNRRPILIIVTLETRDGQVLGRRCFEARICACPGRDRKADEDSIRKQQVSDSTKNGDGTKRPFRQNTHGIQMTSIKKRRSPDDELLYLPVRGRETYEMLLKIKESLELMQYLPQHTIETYRQQQQQQHQHLLQKQTSIQSPSSYGNSSPPLNKMNSMNKLPSVSQLINPQQRNALTPTTIPDGMGANIPMMGTHMPMAGDMNGLSPTQALPPPLSMPSTSHCTPPPPYPTDCSIVSFLARLGCSSCLDYFTTQGLTTIYQIEHYSMDDLASLKIPEQFRHAIWKGILDHRQLHEFSSPSHLLRTPSSASTVSVGSSETRGERVIDAVRFTLRQTISFPPRDEWNDFNFDMDARRNKQQRIKEEGE
no binding: all assays above
